Results: US20220033407A1, “N-(pyridin-2-ylsulfonyl)cyclopropanecarboxamide Derivatives and their Use in the Treatment of Disease” (NOVARTIS AG, priority 2018, published 2022)

By UniProt entry, the sequences of proteins in these tests, tags left out. Chains listed by the source or under a name are the forms on record and can include a tag or linker.
UniProt P13569, with tags, fused parts or gaps DEL508-508: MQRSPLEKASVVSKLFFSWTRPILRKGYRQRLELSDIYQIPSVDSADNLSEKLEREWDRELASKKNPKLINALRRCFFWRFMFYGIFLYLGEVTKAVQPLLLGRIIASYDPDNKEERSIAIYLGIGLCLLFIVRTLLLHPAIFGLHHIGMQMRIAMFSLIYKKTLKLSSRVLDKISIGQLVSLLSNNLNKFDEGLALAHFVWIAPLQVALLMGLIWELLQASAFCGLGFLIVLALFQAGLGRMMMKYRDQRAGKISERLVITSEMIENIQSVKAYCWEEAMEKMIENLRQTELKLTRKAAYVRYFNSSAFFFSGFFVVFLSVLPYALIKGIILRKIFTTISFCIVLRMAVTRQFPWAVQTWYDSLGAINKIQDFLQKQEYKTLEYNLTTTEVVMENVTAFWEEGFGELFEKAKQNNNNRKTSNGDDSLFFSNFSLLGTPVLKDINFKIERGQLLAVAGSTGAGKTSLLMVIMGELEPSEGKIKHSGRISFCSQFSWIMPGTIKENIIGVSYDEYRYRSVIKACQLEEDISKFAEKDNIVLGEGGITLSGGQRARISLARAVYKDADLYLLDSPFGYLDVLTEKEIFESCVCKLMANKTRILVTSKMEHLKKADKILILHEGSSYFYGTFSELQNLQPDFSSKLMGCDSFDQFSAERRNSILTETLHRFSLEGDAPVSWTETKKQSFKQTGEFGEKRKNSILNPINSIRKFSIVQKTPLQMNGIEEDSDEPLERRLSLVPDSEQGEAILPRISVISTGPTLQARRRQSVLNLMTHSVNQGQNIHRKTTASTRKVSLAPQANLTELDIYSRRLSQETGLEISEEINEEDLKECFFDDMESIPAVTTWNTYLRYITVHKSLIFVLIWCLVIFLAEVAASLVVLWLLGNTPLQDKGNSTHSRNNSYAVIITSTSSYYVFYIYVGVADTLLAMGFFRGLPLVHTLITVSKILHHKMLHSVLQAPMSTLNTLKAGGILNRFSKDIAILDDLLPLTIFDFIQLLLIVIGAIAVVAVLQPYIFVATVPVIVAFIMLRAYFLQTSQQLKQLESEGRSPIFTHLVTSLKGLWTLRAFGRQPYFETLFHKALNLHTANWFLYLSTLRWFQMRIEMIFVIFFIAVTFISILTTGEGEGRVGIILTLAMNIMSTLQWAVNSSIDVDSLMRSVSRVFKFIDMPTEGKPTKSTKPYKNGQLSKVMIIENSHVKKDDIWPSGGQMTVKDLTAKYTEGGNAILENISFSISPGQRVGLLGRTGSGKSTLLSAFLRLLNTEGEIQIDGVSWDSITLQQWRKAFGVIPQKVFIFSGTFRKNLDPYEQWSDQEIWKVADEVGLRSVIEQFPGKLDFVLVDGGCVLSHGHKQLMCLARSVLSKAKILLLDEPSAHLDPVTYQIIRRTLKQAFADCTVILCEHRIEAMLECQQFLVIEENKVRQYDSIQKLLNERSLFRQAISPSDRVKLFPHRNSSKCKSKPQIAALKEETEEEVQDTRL

Target: delF508-CFTR-HRP (Homo sapiens, UniProt P13569, DEL508-508)
Test: Measurement of delF508-CFTR-HRP surface expression in CFBE41o- cells (HRP luminescence);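 as to DelF508-CFTR-HRP Amax %: percent efficacy relative to a reference CFTR corrector compound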

SMILES: O=C(NS(=O)(=O)c1cccc(N2CC[C@H](O)C2)n1)C1(Oc2cc(Cl)ccc2N2CCC3(CC2)CC3)CC1 [Example 9-9, (S)-1-(5-Chloro-2-(6-azaspiro[2.5]octan-6-yl)phenoxy)-N-((6-(3-hydroxypyrrolidin-1-yl)pyridin-2-yl)sulfonyl)cyclopropanecarboxamide]
- DelF508-CFTR-HRP Amax %: 551.3%
- EC50 (read-out: DelF508-CFTR-HRP EC50, mean of at least two replicates): 600 nM

The structures given here were assigned with low confidence; some may be wrong.
